Reference: patent US20030162732A1, “Combination of aminosugars and cysteine or cysteine derivatives” (Astion Development A/S, priority 2001, published 2003)
At least one structure is not confirmed: it was looked up by name or label, or the drawing left a doubt.

System: tendonitis of the arm; osteoarthritis of the hips and knees; knee injury involving cartilage damage
Assay: small preliminary clinical investigation, three persons, oral aqueous solution of compound 105
Assay type: in vivo, human
Details: person, normal doses, patient history
Experimental: In a small preliminary clinical investigation three persons administered a pharmaceutical composition according to the invention. The composition was an aqueous solution (100 mg/ml) of compound 105, which is the complex of the invention prepared according to example 105.
One patient was […] and had suffered from tendonitis of the arm for eight months. The symptoms were chronic muscle pain and some degree of immobility of the arm.
The composition of the invention was administered orally corresponding to 3000 mg compound 105 twice a day. […] After a further week of treatment the treatment was discontinued.
Another patient was […] and had suffered from osteoarthritis of the hips and knees for ten years. For some periods the patient had been treated with celecoxib, paracetamol and/or codein to control the pain. The main symptoms were pain and immobility of the joints. The composition of the invention was administered orally corresponding to 3000 mg compound 105 twice a day.
The symptoms were pain and immobility of the knee joint. The composition of the invention was administered orally corresponding to 3000 mg compound 105 twice a day. […] During the next two days the symptoms started reappearing.

Cc1ccc(-c2cc(C(F)(F)F)nn2-c2ccc(S(N)(=O)=O)cc2)cc1 [celecoxib]
symptomatic effect of earlier treatment: limited symptomatic effect
